The other results are listed elsewhere or left out. Further columns of the screen follow, without active or inactive calls. Most of these compounds were active or inconclusive in the main read-out, so they are no random draw. Words in brackets tell the shape of the fitted curve; partial curves, single points and poor fits give uncertain potencies.
Experiment: qHTS Assay to Find Inhibitors of Chronic Active B-Cell Receptor Signaling
Conditions: ABC-DLBCL IkBa-CBG/CBR reporter, luminescence ratio (green luciferase fused to IkBa over red control in TMD8 lymphoma cells), 4 h
Outline: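 Compounds up to 46 uM were incubated four hours with TMD8 cells whose green CBG68 luciferase is fused to IkappaBalpha; red CBR luminescence normalised the signal, and concentration-effect curves were fitted to fusion, red and ratio data.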

[1] = measured here: CBR red luminescence, cell number
[2] = measured here: IkBa-CBG green luminescence

| SMILES | AC50 [1] | AC50 [2] |
| --- | --- | --- |
| COc1ccc([N+](=O)[O-])cc1NCc1ccccc1 | 6.51 µM [rising, full curve] | – |
| CC(C)C(=O)Nc1nnc(CCN2CCCCC2)s1 | 32.6 µM [rising, single point] | – |
| CCCN(CC(=O)Nc1ccccc1C)C(=O)C1CC(=O)N(c2ccc(CC)cc2)C1 (stereo unspecified) | 0.411 µM [rising, partial curve, poor fit] | – |
| C/C(=N/NC(=O)c1ccoc1C)c1cccc(NC(=O)C2CC2)c1 | 11.6 µM [falling, partial curve] | – |
| Cc1ccc(NNC(=S)Nc2ccc(C(C)C)cc2)c(C)c1 | 0.366 µM [falling, full curve] | – |
| O=C(Nc1ccc(Cl)cc1)N(C1=NCCC1)c1ccc(OC(F)F)cc1 | 0.794 µM [rising, full curve, poor fit] | – |
| Cc1cccc(C(=O)Nc2ccc(N3CCN(c4ccc(C(F)(F)F)cn4)CC3)nc2)c1 | 31.6 µM [falling, single point] | – |
| CCCc1nc2oc3ccccc3c(=O)c2c(=O)n1-c1ccc(C)cc1 | 1.78 µM [falling, full curve] | – |
| COc1ccc(NC(=O)c2cc(SC)ccc2Cl)cc1 | 25.9 µM [falling, single point] | – |
| COC(=O)c1sccc1NC(=O)Nc1ccc(OC)cc1 | 2.82 µM [falling, full curve] | – |
| C=CCNC(=S)NNc1nc2c(c(=O)[nH]1)C1(CCCCC1)Cc1ccccc1-2 | 23.1 µM [falling, single point] | – |
| COc1ccc(CNCC(O)(c2ccccc2)c2ccc(Cl)cc2)cc1 (stereo unspecified) | 25.9 µM [falling, single point] | – |
| CCC(=O)NCCCNc1nc2c(C)cccc2cc1C#N | 15.8 µM [falling, partial curve, poor fit] | – |
| Cc1cccc(C)c1OCc1cc(C(=O)N2CCN(Cc3nccn3C)CC2)no1 | 0.0891 µM [rising, full curve, poor fit] | – |
| COc1cc(CN2CCNC(=O)C2CC(=O)NCCc2ncccc2C)cc(OC)c1 (stereo unspecified) | 3.16 µM [rising, single point] | – |
| O=C(CSc1nc2ccccc2o1)Nc1nccs1 | 12.6 µM [falling, single point] | – |
| CCOC(=O)c1ccccc1N/C=C/C(=O)c1cccs1 | 16.4 µM [falling, single point] | – |
| Cc1ccc(NC(=O)CSc2nc3ccccc3c3nc(CCn4c(C)nc5ccccc54)nn23)cc1F | 15.8 µM [falling, single point] | – |
| O=C(Nc1ccc2c(c1)OCO2)Nc1ccc(Cl)cc1Cl | 6.51 µM [rising, single point] | – |
| COc1cc2c(cc1OC)C(c1ccccc1)N(C(=O)CCl)CC2 (stereo unspecified) | 3.16 µM [falling, full curve, poor fit] | – |
| C=CCn1c(Cc2cccs2)nnc1SCC(=O)c1ccc2ccccc2c1 | 7.31 µM [rising, partial curve, poor fit] | – |

| SMILES | AC50 [1] | AC50 [2] |
| --- | --- | --- |
| COc1ccc(CN2CCC(Oc3ccc(C(=O)NCc4ccccn4)cc3)CC2)c(F)c1 | 4.47 µM [rising, partial curve, poor fit] | – |
| O=C(CSc1ccccc1)NCc1ccco1 | 18.4 µM [rising, partial curve, poor fit] | – |
| Cc1ccc(C#CC[N+]2(CC#Cc3ccc(C)cc3)CCCCC2)cc1 | 23.1 µM [falling, single point] | – |
| COCCNC(=O)/C(C#N)=C/c1ccc(OCc2ccc(F)cc2)cc1 | 1.12 µM [falling, full curve, poor fit] | – |
| O=C(O)c1ccc2[nH]c3c(c2c1)CSCC3 | 16.4 µM [falling, partial curve, poor fit] | – |
| CCCc1nnc(NC(=O)c2nc(S(=O)(=O)Cc3ccc(C)cc3)ncc2Cl)s1 | 14.1 µM [falling, single point] | – |
| Cc1ccccc1CN1CCN(C2CCC2)CC1CCO (stereo unspecified) | 3.16 µM [rising, single point] | – |
| Cc1ccc2c(C(=O)CN3CCC(C(N)=O)CC3)c(C)[nH]c2c1 | 11.2 µM [rising, partial curve, poor fit] | – |
| COc1cccc(-c2sc3ccc(OC)cc3c2-c2cc(F)cc(OC)c2)c1 | 16.4 µM [rising, partial curve, poor fit] | – |
| O=c1c2c3c(sc2nc2n1CCC2)CCCC3 | 0.398 µM [rising, partial curve, poor fit] | – |
| CCN(CC)CCCCN1c2ccccc2Sc2ccccc21 | 35.5 µM [falling, single point] | – |
| Cc1cc(C)c2c(=O)n(CC(=O)NC3CCCC3)sc2n1 | 3.16 µM [falling, partial curve, poor fit] | – |
| COc1ccc(NC(=O)C(C/C=C(/C)Cl)C(C)=O)cc1 (stereo unspecified) | 6.51 µM [falling, single point] | – |
| Nc1nc(N)c2c(ccc3nccc32)[nH]1 | 7.08 µM [rising, partial curve, poor fit] | 11.2 µM [falling, partial curve, poor fit] |
| CN(C)CCCN(C(=O)c1ccc(S(=O)(=O)N2CCCCC2)cc1)c1nc2cc3c(cc2s1)OCO3 | 35.5 µM [falling, single point] | – |
| O=C(Nc1ccc(F)c(F)c1)C1CCCN(S(=O)(=O)c2cccc3nonc23)C1 (stereo unspecified) | 35.5 µM [rising, partial curve, poor fit] | – |
| CCOC(=O)c1cccc(-c2c(-c3ccccc3)ncc3cc(OC)c(OC)cc23)c1 | 18.4 µM [falling, partial curve] | – |
| Cc1ccnc(SCC(=O)Nc2c(C)n(C)n(-c3ccccc3)c2=O)n1 | 0.259 µM [falling, full curve, poor fit] | – |
| CCN1C/C(=C/c2ccc(N3CCOCC3)cc2)C(=O)/C(=C/c2ccc(N3CCOCC3)cc2)C1 | 1.46 µM [falling, partial curve, poor fit] | 29.1 µM [falling, single point] |
| O=C(O)c1[nH]c2ccc(Cl)cc2c1CCN1C(=O)c2ccccc2C1=O | 35.5 µM [rising, single point] | – |
| CCCC(=O)Nc1nc2c(OC)ccc(OC)c2s1 | 6.51 µM [falling, partial curve, poor fit] | – |

| SMILES | AC50 [1] | AC50 [2] |
| --- | --- | --- |
| O=C(CSc1nnc(NC(=O)c2c(F)cccc2F)s1)Nc1ccc(F)cc1 | 0.794 µM [rising, full curve, poor fit] | – |
| COC(=O)c1ccccc1NC(=O)c1ccc(-c2cccc(Cl)c2)o1 | 0.082 µM [falling, full curve] | – |
| C=CCNC(=O)CSc1nnc(-c2ccc(S(=O)(=O)N3CCCC3)cc2)n1C | 15.8 µM [rising, partial curve, poor fit] | – |
| CCn1c(SCc2nc3ccccc3c(=O)[nH]2)nnc1C(C)NC(=O)c1ccccc1 (stereo unspecified) | 17.8 µM [falling, single point] | – |
| CCOC(=O)c1c(NC(=O)CNC2CCCCC2)sc(C)c1C | 22.4 µM [falling, single point] | – |
| C#CCNC(=O)C1=C[C@H](c2ccc(C(F)(F)F)cc2)C[C@H](OCc2ccc(CO)cc2)O1 | 2.82 µM [rising, partial curve, poor fit] | – |
| C/C(=N/NC(=O)c1ccncc1)c1c[nH]c2ccccc12 | 35.5 µM [falling, single point] | – |
| N#Cc1c(N)nc2c3c(sc(=N)c2c1N)NC(=O)CC3c1ccccc1 (stereo unspecified) | 25.9 µM [rising, single point] | 29.1 µM [falling, single point] |
| Clc1ccc(C2CSc3c4ncnc-4ncn32)cc1 (stereo unspecified) | 5.62 µM [rising, full curve, poor fit] | – |
| CC1=CC(C)(C)n2c(O)c(N=N)c3cc(C)cc1c32 | – | 3.66 µM [falling, partial curve, poor fit] |
| COc1cccc(-c2nn(C)c3sc(C(=O)NCc4ccc5c(c4)OCO5)cc23)c1 | 15.8 µM [falling, single point] | – |
| O=C(c1cc(COc2cccc(C(F)(F)F)c2)on1)N1CCC(c2ccncc2)CC1 | 14.1 µM [falling, single point] | – |
| CCCC(=O)c1c(C)c2ccccc2n1C | 3.55 µM [rising, partial curve, poor fit] | – |
| Cc1cc2nc3ccc(=[N+](C)C)cc-3sc2cc1N | 35.5 µM [falling, single point] | – |
| Cc1cccc(CC2CC(=O)N(c3ccccc3)C2=O)c1 (stereo unspecified) | 10.3 µM [rising, partial curve, poor fit] | – |
| COc1ccccc1-[n+]1c(C)cc(/C=C2\Sc3ccccc3N2C)cc1C | 8.91 µM [falling, partial curve, poor fit] | – |
| O=C(NC(O)C(=O)c1ccccc1)c1cccs1 (stereo unspecified) | 14.6 µM [falling, partial curve, poor fit] | – |
| CCc1ccccc1NC(=O)c1cc(S(=O)(=O)NCCc2ccc(OC)c(OC)c2)ccc1F | 0.562 µM [rising, full curve, poor fit] | – |
| O=C1CN(C(=O)c2c(F)cccc2F)C(c2ccc(F)cc2)c2cc(Br)ccc2N1 (stereo unspecified) | 25.1 µM [falling, single point] | – |
| COC(=O)c1cccc(NC(=O)Cc2coc3cc(OC)ccc23)c1 | 8.2 µM [falling, partial curve, poor fit] | – |
| O=C(CCCCCn1c(SCC(=O)c2ccccc2)nc2ccccc2c1=O)NCc1ccco1 | 25.1 µM [rising, partial curve, poor fit] | – |

Rewritten field by field: entries from further up.
CCOC(=O)c1c(NC(=O)CNC2CCCCC2)sc(C)c1C
  AC50 [1]: 22.4 µM [falling, single point]
Cc1cc2nc3ccc(=[N+](C)C)cc-3sc2cc1N
  AC50 [1]: 35.5 µM [falling, single point]
O=C1CN(C(=O)c2c(F)cccc2F)C(c2ccc(F)cc2)c2cc(Br)ccc2N1 (stereo unspecified)
  AC50 [1]: 25.1 µM [falling, single point]
COC(=O)c1cccc(NC(=O)Cc2coc3cc(OC)ccc23)c1
  AC50 [1]: 8.2 µM [falling, partial curve, poor fit]

Reference: PubChem BioAssay AID493014 (National Center for Advancing Translational Sciences (NCATS), 2011)
